Results published in patent publication US20190185531A1.
No constants are given. Whether binding was seen depends on the method and setting. Some binding calls cover weakened binding; strength is not graded here. Tags and fused reporters may be left off the sequences shown.

Legend:
[1] = molecular target: T1, human Bfl-1 (c-myc-tagged) (human) (UniProt Q16548); experiment: assay not described
T1 sequence (looked up): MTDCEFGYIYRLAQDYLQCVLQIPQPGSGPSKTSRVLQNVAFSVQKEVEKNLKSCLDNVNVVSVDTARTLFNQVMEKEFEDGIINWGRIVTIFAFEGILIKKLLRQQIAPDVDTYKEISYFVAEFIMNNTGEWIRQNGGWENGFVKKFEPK

[2] = molecular target: T1, human Bfl-1 (c-myc-tagged) (human); experiment: competition fluorescence polarization with fluoresceinated Bim peptide
[3] = molecular target: T1, human Bfl-1 (c-myc-tagged) (human); experiment: competition fluorescence polarization with fluoresceinated Bim peptide (FIG. 7, FIG. 8)
[4] = molecular target: T1, human Bfl-1 (c-myc-tagged) (human); experiment: competition fluorescence anisotropy (FIG. 2I)

B1: FS2 with alanine at position F3 (D3f) (peptide)
peptide: QWVREIAAGLRRAAADVNAQVER
With B1 the binding [1] was “binds”.

B2: FS2 with serine at position F3 (D3f) (peptide)
peptide: QWVREIAAGLRRAASDVNAQVER
In the case of B2, the binding [1] is reported as “binds”.

B3: FS2 with asparagine at position F3 (D3f) (peptide)
peptide: QWVREIAAGLRRAANDVNAQVER
In the case of B3, the binding [1] is reported as “binds”.

B4: FS2 with glutamate at position F3 (D3f) (peptide)
peptide: QWVREIAAGLRRAAEDVNAQVER
With B4 the binding [1] was “binds”.

B5: FS2 with histidine at position F3 (D3f) (peptide)
peptide: QWVREIAAGLRRAAHDVNAQVER
With B5 the binding [1] was “binds”.

B6: FS2 with tyrosine at position F3 (D3f) (peptide)
peptide: QWVREIAAGLRRAAYDVNAQVER
With B6 the binding [1] was “binds”.

B7: FS1 (peptide)
peptide: QWVREIAAGLRLAADNVNAQLER
modifications: N-terminal acetylation; C-terminal amidation
With B7 the binding [2] was “binds”, the binding [3] was “binds” and the binding [4] was “binds”.

B8: FS3 (peptide)
peptide: QWIREIAAGLRRFADILNAQVER
modifications: N-terminal acetylation; C-terminal amidation
With B8 the binding [2] was “binds”, the binding [3] was “binds” and the binding [4] was “binds”.
